Measured values reported in US11008291B2, “Methods of forming carbene-functionalized composite materials” (Queen's University at Kingston, priority 2015, dated 2021).

Test: Protection of Cu and Ni surfaces from oxidation in air by NHC monolayer (XPS)
Details: a week in air; for Protection of copper surface from oxidation by NHC layer: Cu foil coated from the precursor/carbene; for Protection of Ni from oxidation by NHC layer: Ni foil coated from the precursor/carbene

| SMILES | Protection of copper surface from oxidation by NHC layer | Protection of Ni from oxidation by NHC layer |
| --- | --- | --- |
| CC(C)N1[C]N(C(C)C)c2ccccc21 [Compound 2a, 1,3-dihydro-1,3-bisisopropylbenzimidazol-2-ylidene] | partially protects | fully protects |
| CC(C)n1c[n+](C(C)C)c2ccccc21 [Compound 3a, 1,3-Diisopropylbenzimidazolium hydrogen carbonate] | partially protects | fully protects |
